Assay: In vivo active ingredient release by tape stripping of stratum corneum
Set-up: species or system volunteers
Details: FIG. 4
Experimental: The in vivo active ingredient release from the film prepared as per Example 1 was evaluated on volunteers, 24 to 26 years of age, using the tape stripping technique, proposed by the US FDA for the determination of the bioavailability/bioequivalence of topical formulations (US FDA, Topical dermatological drug products, NDAs and […] vivo bioavailability, bioequivalence, in vitro release and associated studies, CDAR, 1998). This technique is based on the removal of small portions of stratum corneum by repeated applications of the adhesive tape to the skin and successive extraction and analysis of the active ingredient contained therein. To go into details, single-layer film portions obtained as per Example 1 were applied to the volunteers' forearm moistened skin and maintained there, with or without iontophoretic applications, for a period of 30 min. After said period, they were removed and tape stripping was carried out. […] Each adhesive tape was weighed before and after application: the quantity of stratum corneum removed every time was determined. […] The eluent used was a mixture of acetonitrile (14 parts) and 0.05 M potassium phosphate (86 parts), pumped at a flow rate of 1 milliliter per minute and monitored by spectrophotometer at 216 nm. The detected amount of lidocaine was normalised in respect of the amount of stratum corneum contained in each sample of adhesive tape.

## CCN(CC)CC(=O)Nc1c(C)cccc1C [lidocaine]
Stratum corneum deeper layers (adhesive tapes 6-10, 11-15)
  average distribution of lidocaine in the stratum corneum vs. distance from the dermal surface: non-negligible amounts also pass into the deeper layers
Stratum corneum upper layers (adhesive tapes 1-5)
  average distribution of lidocaine in the stratum corneum vs. distance from the dermal surface: especially present in the stratum corneum upper layers

From patent US20100008972A1, “Film for active ingredients dermal and transdermal administration” (LISAPHARMA S.P.A., priority 2000, published 2010)
